Measured values: PubChem BioAssay AID493014 (National Center for Advancing Translational Sciences (NCATS), 2011)
Screen size: about 340,000 compounds; about 170 (0.05%) were called active. Inconclusive means that the source gave no clear call. Such entries were picked first, then a sample of the others. Calls follow the shape of the dose curve; as a rule, active = well fitted inhibition curve with a large enough effect in the signal ratio, with a control signal flat (not every such curve was filed as active); inconclusive = small, poorly fitted or top-dose-only effect, or effect the other way, or a change in a side signal; inactive = flat fitted curve, though single readings scatter; the % refers to the signal ratio. Where the call is inconclusive, the potency comes from a doubtful curve fit.

Assay: qHTS Assay to Find Inhibitors of Chronic Active B-Cell Receptor Signaling;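 as to activity change, negative = inhibition: plate controls were basal doxycycline-induced cells for no effect and cells given 10 µM MG132 for full effect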
Conditions: ABC-DLBCL IkBa-CBG/CBR reporter, luminescence ratio (green luciferase fused to IkBa over red control in TMD8 lymphoma cells), 4 h; activity change, negative = inhibition: at 46.1 µM (top of the series) unless noted
How it was run: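 Doxycycline induced both beetle luciferases in TMD8 lymphoma cells; IKK-driven degradation limits the IkappaBalpha-fused green signal, while red luminescence normalises for cell number and nonspecific effects. Compounds tested up to 46 uM, 4 hrs.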
Potency is read from the fitted curve at half-maximal effect.

Row | SMILES | activity change, negative = inhibition | Potency
1 | COc1ccc(OC)c(N=CC2=C(O)CC(C)(C)CC2=O)c1 | inconclusive: -9.1% | 
2 | Clc1ccc(OCc2cn3cccnc3n2)c2ncccc12 | inconclusive: -17.1% | 
3 | CN1CCN(/N=C/c2c3ccccc3c(Cl)c3ccccc23)CC1 |  | inconclusive: 35.5 µM [falling, single point]
4 | C/C(O)=C\c1nc2ccccc2oc1=O |  | inconclusive: 10 µM [falling, partial curve]
5 | COC(=O)c1sc2c(c1C)c(=O)n(-c1ccccc1)c(=O)n2CC(=O)Nc1cccc(C)c1 | inactive | 
6 | O=C1NCCCC1C(=O)N/N=C/c1cccc(Cl)c1 (stereo not given) | inconclusive: 0.122% | 
7 | O=C(Nc1cccnc1Cl)c1cc([N+](=O)[O-])ccc1Cl |  | inconclusive: 25.1 µM [falling, single point]
8 | CC1(C)CC(=O)c2sc(NC(=O)C(C)(C)C)nc2C1 | inconclusive: -4.22% | 
9 | C/C(CC(=O)Nc1ccc(F)cc1F)=N\NC(=O)C(=O)N1CCCCC1 |  | inconclusive: 17.8 µM [falling, partial curve, poor fit]
10 | COc1ccc(Cc2c(Cl)ncnc2Cl)cc1 | inconclusive: 2.46% | 
11 | COc1ccc(NC(=O)c2cc(-c3ccccc3Cl)on2)cc1 |  | inconclusive: 1.12 µM [falling, full curve]
12 | CCc1c(C)sc(NC(=O)c2ccco2)c1C#N | inconclusive: -2.67% | 
13 | O=C(NCC1CCCO1)c1cccc(NC(=O)c2ccccc2)c1 (stereo not given) |  | inconclusive: 17.8 µM [falling, single point]
14 | COCc1nnc(NC(=O)c2ccc(OC)cc2OC)s1 |  | inconclusive: 25.1 µM [falling, single point]
15 | CC/C(Cc1ccccc1)=N/NC(=O)c1cccc(Br)c1 |  | inconclusive: 20.6 µM [falling, partial curve, poor fit]
16 | O=C(c1ccccn1)c1ccc2ccccc2n1 | inconclusive: 6.1% | 
17 | O=C(NCCc1c[nH]c2ccccc12)c1cnc2n(c1=O)CCS2 | inactive | 
18 | Cc1csc2nc(O)c(C(=O)NC3CCCCC3)c(=O)n12 | inconclusive: -21.1% | 
19 | COc1cccc(C(=O)NNC(=O)c2ccccc2)c1 |  | inconclusive: 35.5 µM [rising, partial curve]
20 | COc1cc(C2OC(=O)c3ccccc3S2)cc(OC)c1OC (stereo not given) | inconclusive: -5.48% | 
21 | CC(=O)N1CCN(C(=O)CCNS(=O)(=O)c2ccc(Br)cc2)CC1 | inconclusive: 1.34% | 
22 | Cc1ccc2nsnc2c1NC(=O)c1ccc(-c2cc(Cl)ccc2Cl)o1 | inactive | 
23 | COc1cc2c(cc1OC)CN(C(=O)C1CCC(=O)N(CCCN3CCOCC3)C1)CC2 (stereo not given) | inconclusive: -39.6% | 
24 | CC(C)Cc1nnc(NC(=O)C2=COCCO2)s1 |  | inconclusive: 29.1 µM [falling, single point]
25 | COc1ccc(-c2csc(NC(=O)c3cccc(S(=O)(=O)N4CCN(C)CC4)c3)n2)cc1 | inconclusive: -9.67% | 

In the list so far, seven have a Cl atom:
Row | SMILES | activity change, negative = inhibition | Potency
2 | Clc1ccc(OCc2cn3cccnc3n2)c2ncccc12 | inconclusive: -17.1% | 
3 | CN1CCN(/N=C/c2c3ccccc3c(Cl)c3ccccc23)CC1 |  | inconclusive: 35.5 µM [falling, single point]
6 | O=C1NCCCC1C(=O)N/N=C/c1cccc(Cl)c1 (stereo not given) | inconclusive: 0.122% | 
7 | O=C(Nc1cccnc1Cl)c1cc([N+](=O)[O-])ccc1Cl |  | inconclusive: 25.1 µM [falling, single point]
10 | COc1ccc(Cc2c(Cl)ncnc2Cl)cc1 | inconclusive: 2.46% | 
11 | COc1ccc(NC(=O)c2cc(-c3ccccc3Cl)on2)cc1 |  | inconclusive: 1.12 µM [falling, full curve]
22 | Cc1ccc2nsnc2c1NC(=O)c1ccc(-c2cc(Cl)ccc2Cl)o1 | inactive | 

Reprinted at random: 2 compounds from above.
Row | SMILES | activity change, negative = inhibition | Potency
12 | CCc1c(C)sc(NC(=O)c2ccco2)c1C#N | inconclusive: -2.67% | 
25 | COc1ccc(-c2csc(NC(=O)c3cccc(S(=O)(=O)N4CCN(C)CC4)c3)n2)cc1 | inconclusive: -9.67% | 

Later entries.

Row | SMILES | activity change, negative = inhibition | Potency
26 | COc1ccc(Cl)cc1NC(=O)c1cc(-c2cc(C)ccc2O)n[nH]1 |  | inconclusive: 1.78 µM [falling, partial curve, poor fit]
27 | c1ccc(CCNc2ncnc3scc(C4COc5ccccc5O4)c23)cc1 (stereo not given) | inconclusive: -0.841% | 
28 | COc1cccc(CC(=O)Nc2ccc(-c3nc4ccccc4s3)cc2Cl)c1 | inconclusive: -0.33% | 
29 | CCOc1ccc(C(=O)c2ccncc2)cc1 | inconclusive: 11.7% | 
30 | O=C(O)COc1ccccc1/C=N/NC(=O)CSc1nc2ccccc2s1 | inconclusive: 5.83% | 
31 | Nc1ncnc2c1ncn2[C@@H]1O[C@H](CNC(=O)[C@H](N)Cc2cscn2)[C@@H](O)[C@H]1O | inconclusive: -1.1% | 
32 | CC(=O)c1ccc(CC2SC(N)=NC2=O)cc1 (stereo not given) | inactive | 
33 | CCN(CC)CCCNC(=O)CCC(=O)NNc1nc2ccccc2c2nc(C)nn12 |  | inconclusive: 35.5 µM [cytotoxic, single point]
34 | O=C(N/N=C/C=C/c1ccco1)c1ccccc1Cl |  | inconclusive: 5.62 µM [rising, partial curve]
35 | CC(=O)N/N=C(\C)c1ccc2c(c1)OCCO2 | inactive | 
36 | O=C(NC(=S)Nc1nc2c(s1)CSc1ccccc1-2)c1ccccc1 |  | inconclusive: 29.1 µM [rising, single point]
37 | O=C1N=C2SCCN2/C1=C\c1ccc(Cl)cc1 |  | inconclusive: 14.6 µM [falling, partial curve, poor fit]
38 | COc1ccc(-c2noc3c2-c2nc(-c4ccccc4F)sc2CC3)cc1 | inactive | 
39 | CC(=O)Nc1nc(C)nc(-c2ccccc2OC(C)=O)n1 | inactive | 
40 | O=C(COc1ccc(Cl)cc1)Nc1nnc(S(=O)(=O)N2CCCCCC2)s1 |  | inconclusive: 7.08 µM [rising, partial curve, poor fit]
41 | Cc1cc(=O)[nH]c(SCC(=O)C23CC4CC(CC(C4)C2)C3)c1C#N |  | inconclusive: 18.4 µM [rising, partial curve, poor fit]
42 | COc1cc(-c2ccc3sc(-c4ccsc4)c(C#CCO)c3c2)cc(OC)c1OC | inconclusive: -2.84% | 
43 | O=Cc1ccc(OC(=O)CCCCC(=O)Oc2ccc(C=O)cc2)cc1 |  | inconclusive: 0.501 µM [rising, full curve, poor fit]
44 | COc1ccc(C2NC(=S)NC(C)=C2C(=O)c2ccccc2)cc1OC (stereo not given) | inactive | 
45 | COc1ccc(C(C(=O)Nc2ccc(F)cc2)N(C(=O)Cn2nnc3ccccc32)C2CC2)cc1 (stereo not given) | inconclusive: -4.19% | 
46 | COc1ccccc1C(=O)Nc1ccc(OCc2nnc3c4ccccc4c(C)nn23)cc1 | inconclusive: -12.3% | 
47 | COc1ccccc1CNC(=O)c1c(N)n(CCCN2CCOCC2)c2nc3ccccc3nc12 | inconclusive: -4.28% | 
48 | O=C(OCc1nc2ccccc2s1)c1ccco1 | inconclusive: 20.9% | 
49 | CC(C)Oc1ccc(C2CC(=O)N(c3cccc(C(=O)O)c3)C2=O)cc1 (stereo not given) | inconclusive: 3.13% | 
50 | C/C(CC(=O)Nc1ccc2c(c1)OCO2)=N\NC(=O)c1ccccc1N |  | inconclusive: 35.5 µM [rising, single point]
